In article doi:10.1101/2023.10.13.562155 (bioRxiv, 2023):
Read-outs that look alike come from different tables or passages of the source. These are yes or no findings as the source states them, for the method shown. Binding seen in cells or lysates may run through a third protein. Some entries that bind do so weakly or less than the wild type. For some of these results: Sequences can lack the tags named with a protein.

Sequences of proteins named here, by UniProt entry; tags and fusion partners are left off. A change or cut given only in a name is not applied to a line headed by its entry. Residues count along the entry.
UniProt Q9Z0W1, 32-427: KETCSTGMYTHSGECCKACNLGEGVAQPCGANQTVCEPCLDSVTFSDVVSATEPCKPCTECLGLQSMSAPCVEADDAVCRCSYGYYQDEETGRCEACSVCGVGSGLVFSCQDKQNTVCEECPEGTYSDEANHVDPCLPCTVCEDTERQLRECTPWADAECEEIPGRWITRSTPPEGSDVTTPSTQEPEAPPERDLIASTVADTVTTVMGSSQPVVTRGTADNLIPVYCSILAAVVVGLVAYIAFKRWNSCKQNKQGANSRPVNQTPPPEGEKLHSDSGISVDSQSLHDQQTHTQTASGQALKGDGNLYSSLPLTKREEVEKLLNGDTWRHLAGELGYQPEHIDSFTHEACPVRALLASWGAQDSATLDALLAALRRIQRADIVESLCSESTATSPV
UniProt Q9Z0W1, whole entry, looked up, stated change not applied: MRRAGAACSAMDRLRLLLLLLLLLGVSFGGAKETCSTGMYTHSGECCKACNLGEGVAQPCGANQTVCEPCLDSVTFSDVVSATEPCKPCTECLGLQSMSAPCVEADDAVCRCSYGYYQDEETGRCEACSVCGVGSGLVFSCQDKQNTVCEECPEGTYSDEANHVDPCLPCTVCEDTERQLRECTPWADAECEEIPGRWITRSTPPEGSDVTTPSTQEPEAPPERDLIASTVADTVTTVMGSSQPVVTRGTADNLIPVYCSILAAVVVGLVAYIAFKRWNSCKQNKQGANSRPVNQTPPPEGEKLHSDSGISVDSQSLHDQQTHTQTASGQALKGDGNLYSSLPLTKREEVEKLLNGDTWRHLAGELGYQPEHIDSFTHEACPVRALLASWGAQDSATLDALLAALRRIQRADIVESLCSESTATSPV
UniProt P58801, whole entry: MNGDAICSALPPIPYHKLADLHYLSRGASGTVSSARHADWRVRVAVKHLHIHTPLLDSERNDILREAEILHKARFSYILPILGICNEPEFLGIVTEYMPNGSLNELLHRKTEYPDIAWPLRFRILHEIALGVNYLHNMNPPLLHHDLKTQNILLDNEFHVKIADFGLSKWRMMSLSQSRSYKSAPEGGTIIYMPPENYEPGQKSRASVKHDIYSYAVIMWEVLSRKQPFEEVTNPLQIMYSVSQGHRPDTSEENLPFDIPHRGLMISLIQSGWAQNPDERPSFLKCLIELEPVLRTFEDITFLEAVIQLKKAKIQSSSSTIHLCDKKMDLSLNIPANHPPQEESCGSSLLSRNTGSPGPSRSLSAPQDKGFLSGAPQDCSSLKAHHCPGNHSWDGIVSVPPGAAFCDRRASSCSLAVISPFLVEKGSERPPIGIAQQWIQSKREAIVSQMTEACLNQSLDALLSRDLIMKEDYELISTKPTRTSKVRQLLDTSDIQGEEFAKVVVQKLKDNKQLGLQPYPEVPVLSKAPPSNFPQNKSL
UniProt Q9QUI0, whole entry: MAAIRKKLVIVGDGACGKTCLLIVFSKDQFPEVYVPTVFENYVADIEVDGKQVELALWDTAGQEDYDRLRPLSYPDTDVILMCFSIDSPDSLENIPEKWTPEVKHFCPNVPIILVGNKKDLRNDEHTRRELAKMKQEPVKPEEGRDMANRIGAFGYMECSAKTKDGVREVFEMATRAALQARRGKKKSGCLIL

Columns and labels:
[1] = target: mouse p75^NTR K303A (mouse) (UniProt Q9Z0W1); assay: co-IP
[2] = target: mouse p75^NTR wild type, transfected in NIH3T3 cells (mouse) (UniProt Q9Z0W1); assay: co-IP
[3] = target: T1, Flag-tagged mouse RhoGDI S34D/S96A double mutant (mouse) (UniProt Q99PT1); assay: co-IP
T1 sequence: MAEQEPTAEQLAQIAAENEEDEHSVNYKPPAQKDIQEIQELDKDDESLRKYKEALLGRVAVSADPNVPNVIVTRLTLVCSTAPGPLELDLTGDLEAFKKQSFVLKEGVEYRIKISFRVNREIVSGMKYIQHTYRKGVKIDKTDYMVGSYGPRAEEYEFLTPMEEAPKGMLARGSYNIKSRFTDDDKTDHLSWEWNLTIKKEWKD

[4] = target: T2, Flag-tagged mouse RhoGDI wild type (mouse) (UniProt Q99PT1); assay: co-IP
T2 sequence: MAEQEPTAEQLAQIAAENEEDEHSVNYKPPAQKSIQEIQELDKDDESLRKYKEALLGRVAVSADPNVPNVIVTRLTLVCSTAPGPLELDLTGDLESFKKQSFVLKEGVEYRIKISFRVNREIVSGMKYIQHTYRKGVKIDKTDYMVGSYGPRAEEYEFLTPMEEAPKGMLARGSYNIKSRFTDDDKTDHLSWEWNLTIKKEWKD

[5] = target: T3, Flag-tagged mouse RhoGDI S34A (mouse) (UniProt Q99PT1); assay: co-IP
T3 sequence: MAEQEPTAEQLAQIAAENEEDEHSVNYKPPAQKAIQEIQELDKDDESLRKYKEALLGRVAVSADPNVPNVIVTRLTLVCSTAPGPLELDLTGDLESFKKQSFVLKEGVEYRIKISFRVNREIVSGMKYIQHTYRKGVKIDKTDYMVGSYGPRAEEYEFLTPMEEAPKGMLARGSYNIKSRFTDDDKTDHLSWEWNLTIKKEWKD

[6] = target: T4, Flag-tagged mouse RhoGDI S96A (mouse) (UniProt Q99PT1); assay: co-IP
T4 sequence: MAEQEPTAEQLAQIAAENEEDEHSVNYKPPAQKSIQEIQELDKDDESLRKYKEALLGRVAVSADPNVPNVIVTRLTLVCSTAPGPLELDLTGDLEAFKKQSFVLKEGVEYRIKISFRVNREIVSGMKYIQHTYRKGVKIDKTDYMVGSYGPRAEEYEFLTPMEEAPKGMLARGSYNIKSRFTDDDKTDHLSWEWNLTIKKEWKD

[7] = target: T5, Flag-tagged mouse RhoGDI S34D (mouse) (UniProt Q99PT1); assay: co-IP
T5 sequence: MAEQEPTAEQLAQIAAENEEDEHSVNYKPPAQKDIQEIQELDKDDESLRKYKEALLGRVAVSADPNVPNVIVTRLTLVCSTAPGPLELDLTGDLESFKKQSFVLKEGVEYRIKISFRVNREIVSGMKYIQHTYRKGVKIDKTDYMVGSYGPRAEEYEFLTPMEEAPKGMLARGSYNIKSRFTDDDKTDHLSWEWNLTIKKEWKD

[8] = target: mouse p75^NTR K303A (mouse) (UniProt Q9Z0W1); assay: co-IP; remark: listed apart in the source
[9] = target: mouse p75^NTR wild type, transfected in NIH3T3 cells (mouse) (UniProt Q9Z0W1); assay: co-IP; remark: listed apart in the source
[10] = target: mouse p75^NTR K282A/K285A double mutant (mouse) (UniProt Q9Z0W1); assay: co-IP
[11] = target: p75 neurotrophin receptor (p75^NTR), endogenous in cerebellar granule neurons (mouse (endogenous in P7 CGNs)) (UniProt Q9Z0W1); assay: co-IP
[12] = target: p75^NTR wild type expressed by lentivirus in p75^NTR knock-out CGNs (mouse) (UniProt Q9Z0W1); assay: proximity ligation
[13] = target: p75 neurotrophin receptor (p75^NTR), endogenous in cerebellar granule neurons (mouse (endogenous in P7 CGNs)) (UniProt Q9Z0W1); assay: co-IP; remark: listed apart in the source
[14] = target: HA-tagged p75^NTR wild type, electroporated into p75^NTR knock-out CGNs (mouse) (UniProt Q9Z0W1); assay: co-IP
[15] = target: mouse p75^NTR K303D (mouse) (UniProt Q9Z0W1); assay: co-IP

In the case of “mouse Myc-RIP2 (from UniProt P58801 1-539)”, the binding [1] is reported as “binds” and the binding [2] is reported as “binds”.

In the case of HA-RhoA (from UniProt Q9QUI0 1-193), the binding [3] is reported as “binds”, the binding [4] is reported as “binds” and the binding [5] is reported as “binds”. For the same molecule, the binding [6] was “binds” and the binding [7] was “binds”.

B1: RhoGDI-59: the 59 N-terminal residues of RhoGDI fused to GST, Flag-tagged (domain or fragment, UniProt Q99PT1 1-59)
chain: MAEQEPTAEQLAQIAAENEEDEHSVNYKPPAQKSIQEIQELDKDDESLRKYKEALLGRV
B1 was tested, and the binding [8] was “no binding”, the binding [9] was “binds” and the binding [10] was “binds”.

B2: RhoGDI-59 S34A (GST fusion, Flag-tagged) (domain or fragment, UniProt Q99PT1 1-59)
chain: MAEQEPTAEQLAQIAAENEEDEHSVNYKPPAQKAIQEIQELDKDDESLRKYKEALLGRV
With B2 the binding [9] was “no binding”.

B3: RhoGDI-59 S34D (GST fusion, Flag-tagged) (domain or fragment, UniProt Q99PT1 1-59)
chain: MAEQEPTAEQLAQIAAENEEDEHSVNYKPPAQKDIQEIQELDKDDESLRKYKEALLGRV
For B3, the binding [9] was “binds”.

In the case of CPAQKSIQEI (phosphoserine (pS; Ser34 of RhoGDI)) [phospho-Ser^34 RhoGDI peptide (Cys-PAQKpSIQEI)], the binding [11] is reported as “binds”.

B4: Flag-tagged RhoGDI construct lacking the NTD (RhoGDI-Δ59) (domain or fragment, UniProt Q99PT1 60-204)
chain: AVSADPNVPNVIVTRLTLVCSTAPGPLELDLTGDLESFKKQSFVLKEGVEYRIKISFRVNREIVSGMKYIQHTYRKGVKIDKTDYMVGSYGPRAEEYEFLTPMEEAPKGMLARGSYNIKSRFTDDDKTDHLSWEWNLTIKKEWKD
B4 was tested, and the binding [8] was “binds”, the binding [9] was “binds” and the binding [10] was “binds”.

B5: Rho GDP-dissociation inhibitor (RhoGDI), endogenous in cerebellar granule neurons (protein, UniProt Q99PT1 1-204)
chain: MAEQEPTAEQLAQIAAENEEDEHSVNYKPPAQKSIQEIQELDKDDESLRKYKEALLGRVAVSADPNVPNVIVTRLTLVCSTAPGPLELDLTGDLESFKKQSFVLKEGVEYRIKISFRVNREIVSGMKYIQHTYRKGVKIDKTDYMVGSYGPRAEEYEFLTPMEEAPKGMLARGSYNIKSRFTDDDKTDHLSWEWNLTIKKEWKD
In the case of B5, the binding [12] is reported as “binds”, the binding [13] is reported as “binds” and the binding [11] is reported as “binds”. For the same molecule, the binding [14] was “binds”.

B6: mouse RhoGDI S34K (protein, UniProt Q99PT1 1-204)
chain: MAEQEPTAEQLAQIAAENEEDEHSVNYKPPAQKKIQEIQELDKDDESLRKYKEALLGRVAVSADPNVPNVIVTRLTLVCSTAPGPLELDLTGDLESFKKQSFVLKEGVEYRIKISFRVNREIVSGMKYIQHTYRKGVKIDKTDYMVGSYGPRAEEYEFLTPMEEAPKGMLARGSYNIKSRFTDDDKTDHLSWEWNLTIKKEWKD
In the case of B6, the binding [8] is reported as “no binding”, the binding [15] is reported as “binds” and the binding [9] is reported as “no binding”.

B7: Flag-tagged mouse RhoGDI S34A (protein, UniProt Q99PT1 1-204)
chain: MAEQEPTAEQLAQIAAENEEDEHSVNYKPPAQKAIQEIQELDKDDESLRKYKEALLGRVAVSADPNVPNVIVTRLTLVCSTAPGPLELDLTGDLESFKKQSFVLKEGVEYRIKISFRVNREIVSGMKYIQHTYRKGVKIDKTDYMVGSYGPRAEEYEFLTPMEEAPKGMLARGSYNIKSRFTDDDKTDHLSWEWNLTIKKEWKD
For B7, the binding [9] was “binds weakly”.

B8: Flag-tagged mouse RhoGDI S96A (protein, UniProt Q99PT1 1-204)
chain: MAEQEPTAEQLAQIAAENEEDEHSVNYKPPAQKSIQEIQELDKDDESLRKYKEALLGRVAVSADPNVPNVIVTRLTLVCSTAPGPLELDLTGDLEAFKKQSFVLKEGVEYRIKISFRVNREIVSGMKYIQHTYRKGVKIDKTDYMVGSYGPRAEEYEFLTPMEEAPKGMLARGSYNIKSRFTDDDKTDHLSWEWNLTIKKEWKD
With B8 the binding [9] was “binds”.

B9: Flag-tagged mouse RhoGDI S96D (protein, UniProt Q99PT1 1-204)
chain: MAEQEPTAEQLAQIAAENEEDEHSVNYKPPAQKSIQEIQELDKDDESLRKYKEALLGRVAVSADPNVPNVIVTRLTLVCSTAPGPLELDLTGDLEDFKKQSFVLKEGVEYRIKISFRVNREIVSGMKYIQHTYRKGVKIDKTDYMVGSYGPRAEEYEFLTPMEEAPKGMLARGSYNIKSRFTDDDKTDHLSWEWNLTIKKEWKD
In the case of B9, the binding [9] is reported as “binds”.

B10: Flag-tagged mouse RhoGDI S34D (protein, UniProt Q99PT1 1-204)
chain: MAEQEPTAEQLAQIAAENEEDEHSVNYKPPAQKDIQEIQELDKDDESLRKYKEALLGRVAVSADPNVPNVIVTRLTLVCSTAPGPLELDLTGDLESFKKQSFVLKEGVEYRIKISFRVNREIVSGMKYIQHTYRKGVKIDKTDYMVGSYGPRAEEYEFLTPMEEAPKGMLARGSYNIKSRFTDDDKTDHLSWEWNLTIKKEWKD
In the case of B10, the binding [15] is reported as “no binding” and the binding [9] is reported as “binds”.
